Results are given in words; binding and its absence hold for the method and conditions named. In cells and extracts the contact can be indirect. Some results given as binding are weak or reduced against the parent protein; the word gives no strength. For some assays here: Where a sequence is shown, tags or fusion partners need not be part of it.

In test [1] the target is HA-tagged mineralocorticoid receptor (pCMV-HA-MR) (UniProt P08235). The test is described as follows: co-IP; HEK293 co-transfected with MR-HA and HDAC4-, HDAC5- or HDAC7-Flag; Aldo 10 nM for 30 min; whole-cell lysates; MR precipitated with anti-HA antibody, HDACs detected with anti-Flag antibody.
A further test concerns the target T1, HDAC3-Flag, O15379.
T1 chain: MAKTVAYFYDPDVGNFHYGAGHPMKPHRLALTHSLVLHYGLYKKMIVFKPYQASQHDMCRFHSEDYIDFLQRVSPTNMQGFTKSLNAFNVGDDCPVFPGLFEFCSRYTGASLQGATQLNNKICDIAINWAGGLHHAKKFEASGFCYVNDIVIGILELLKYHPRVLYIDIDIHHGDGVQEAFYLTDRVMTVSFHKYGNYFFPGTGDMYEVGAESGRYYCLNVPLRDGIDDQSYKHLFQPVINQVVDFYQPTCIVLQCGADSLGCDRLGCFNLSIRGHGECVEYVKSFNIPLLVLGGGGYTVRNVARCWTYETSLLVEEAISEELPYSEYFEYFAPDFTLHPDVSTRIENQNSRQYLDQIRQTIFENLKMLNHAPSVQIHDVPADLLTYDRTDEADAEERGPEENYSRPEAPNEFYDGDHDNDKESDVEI
Nature of the test: co-IP; HEK293 co-transfected with HDAC3-Flag and HDAC4-, HDAC5- or HDAC7-Flag; Aldo treatment; HDAC3 immunoprecipitated with an antibody, class II HDACs detected by western blotting. The note with it: remark: other sources report otherwise.

As to “HDAC5-Flag (Addgene plasmid 13822) (from UniProt Q9UQL6 1-1122) (enzyme)”, the binding entry in test [1] was “binds”.

B1: HDAC7-Flag (Addgene plasmid 13824), Q8WUI4 1-952 (enzyme)
chain: MDLRVGQRPPVEPPPEPTLLALQRPQRLHHHLFLAGLQQQRSVEPMRLSMDTPMPELQVGPQEQELRQLLHKDKSKRSAVASSVVKQKLAEVILKKQQAALERTVHPNSPGIPYRTLEPLETEGATRSMLSSFLPPVPSLPSDPPEHFPLRKTVSEPNLKLRYKPKKSLERRKNPLLRKESAPPSLRRRPAETLGDSSPSSSSTPASGCSSPNDSEHGPNPILGSEALLGQRLRLQETSVAPFALPTVSLLPAITLGLPAPARADSDRRTHPTLGPRGPILGSPHTPLFLPHGLEPEAGGTLPSRLQPILLLDPSGSHAPLLTVPGLGPLPFHFAQSLMTTERLSGSGLHWPLSRTRSEPLPPSATAPPPPGPMQPRLEQLKTHVQVIKRSAKPSEKPRLRQIPSAEDLETDGGGPGQVVDDGLEHRELGHGQPEARGPAPLQQHPQVLLWEQQRLAGRLPRGSTGDTVLLPLAQGGHRPLSRAQSSPAAPASLSAPEPASQARVLSSSETPARTLPFTTGLIYDSVMLKHQCSCGDNSRHPEHAGRIQSIWSRLQERGLRSQCECLRGRKASLEELQSVHSERHVLLYGTNPLSRLKLDNGKLAGLLAQRMFVMLPCGGVGVDTDTIWNELHSSNAARWAAGSVTDLAFKVASRELKNGFAVVRPPGHHADHSTAMGFCFFNSVAIACRQLQQQSKASKILIVDWDVHHGNGTQQTFYQDPSVLYISLHRHDDGNFFPGSGAVDEVGAGSGEGFNVNVAWAGGLDPPMGDPEYLAAFRIVVMPIAREFSPDLVLVSAGFDAAEGHPAPLGGYHVSAKCFGYMTQQLMNLAGGAVVLALEGGHDLTAICDASEACVAALLGNRVDPLSEEGWKQKPNLNAIRSLEAVIRVHSKYWGCMQRLASCPDSWVPRVPGADKEEVEAVTALASLSVGILAEDRPSEQLVEEEEPMNL
Regarding B1, the binding entry with HDAC3-Flag, O15379 is given as “no binding”.

The values above are taken from paper PMC4549324.
